The list is a part of this screen's results and no random one: it gathers some chemical classes. Not every dose and run of a compound is shown. T/C gives the treated animals as a percentage of the vehicle group. Some doses have a count of surviving animals in place of a T/C: the source files T/C as zero there, which appears to mark a toxic dose or a test without result, not a measured value. Some survivor counts are full or nearly so, which does not show that the dose was tolerated: the source hardly ever lists a survival T/C far under the control, and the zero likely stands for such cases as well. Counts of survivors are from the toxicity check (mostly the fifth day) where no day follows; animals may have died later. Schedules are NCI's codes, read here as Q, the interval in days (D) or hours (H), X, the number of doses. Some entries hold several experiments; the results are listed from low to high. Additions like (4×) stand for listed records that agree. For survival time, this PubChem deposit counts one and a half times the control or more as active, and values a quarter to a half above the control carry no call in these data; other NCI protocols may use other cut-offs. Some T/C values are followed by the survivors on the day toxicity was checked, most often the fifth; without a count or a note in brackets, all were alive then.
Tested on: L1210 leukemia ip in BDF1 mice, survival T/C
Assay: NCI In Vivo Anticancer Drug Screen. Data for tumor model L1210 Leukemia (intraperitoneal) in B6D2F1 (BDF1) mice
Conditions: higher T/C = longer survival

NC(=O)c1[nH]cnc1/N=N\N(CCCl)CCCl
T/C (T/C endpoint: mean survival time, dose: 1920.0 mg/kg/injection, schedule: Q01DX001 (ip), vehicle: saline): 90 % of control
T/C (T/C endpoint: mean survival time, dose: 1920.0 mg/kg/injection, schedule: Q01DX001 (ip), vehicle: steroid suspending solution): 410 % of control
survivor count (T/C endpoint: mean survival time, dose: 1920.0 mg/kg/injection, schedule: Q01DX001 (oral), vehicle: steroid suspending solution): 5 of 8
T/C (T/C endpoint: mean survival time, dose: 2400.0 mg/kg/injection, schedule: Q01DX001 (oral), vehicle: carboxymethylcellulose (CMC)): 152 % of control
T/C (T/C endpoint: mean survival time, dose: 2400.0 mg/kg/injection, schedule: Q08DX003 (oral), vehicle: steroid suspending solution): 97 % of control [7 of 8 alive]
T/C (T/C endpoint: mean survival time, dose: 3200.0 mg/kg/injection, schedule: Q01DX001 (oral), vehicle: carboxymethylcellulose (CMC)): 488 % of control
survivor count (T/C endpoint: mean survival time, dose: 3200.0 mg/kg/injection, schedule: Q01DX001 (oral), vehicle: steroid suspending solution): 6 of 8
T/C (T/C endpoint: median survival time, dose: 25.0 mg/kg/injection, schedule: Q01DX009 (ip), vehicle: Klucel (hydroxypropylcellulose) (HPC)): 172 % of control
T/C (T/C endpoint: median survival time, dose: 50.0 mg/kg/injection, schedule: Q01DX009 (ip), vehicle: Klucel (hydroxypropylcellulose) (HPC)): 205 % of control
T/C (T/C endpoint: median survival time, dose: 100.0 mg/kg/injection, schedule: Q01DX001 (ip), vehicle: Klucel (hydroxypropylcellulose) (HPC), evaluated on day 27): 138 % of control
T/C (T/C endpoint: median survival time, dose: 100.0 mg/kg/injection, schedule: Q01DX001 (ip), vehicle: Klucel (hydroxypropylcellulose) (HPC), evaluated on day 30): 166 % of control
T/C (T/C endpoint: median survival time, dose: 100.0 mg/kg/injection, schedule: Q01DX001 (ip), vehicle: Klucel (hydroxypropylcellulose) (HPC), evaluated on day 38): 124 % of control
T/C (T/C endpoint: median survival time, dose: 100.0 mg/kg/injection, schedule: Q01DX001 (ip), vehicle: Klucel (hydroxypropylcellulose) (HPC), evaluated on day 40): 155 % of control
T/C (T/C endpoint: median survival time, dose: 100.0 mg/kg/injection, schedule: Q01DX001 (ip), vehicle: steroid suspending solution, evaluated on day 30): 133 % of control
T/C (T/C endpoint: median survival time, dose: 100.0 mg/kg/injection, schedule: Q01DX001 (ip), vehicle: steroid suspending solution, evaluated on day 40): 127 and 133 % of control
T/C (T/C endpoint: median survival time, dose: 100.0 mg/kg/injection, schedule: Q01DX001 (ip), vehicle: steroid suspending solution, evaluated on day 45): 161 % of control
T/C (T/C endpoint: median survival time, dose: 100.0 mg/kg/injection, schedule: Q01DX001 (ip), vehicle: steroid suspending solution, evaluated on day 50): 144 and 155 % of control
T/C (T/C endpoint: median survival time, dose: 100.0 mg/kg/injection, schedule: Q01DX001 (ip), vehicle: steroid suspending solution, evaluated on day 54): 181 and 194 % of control
T/C (T/C endpoint: median survival time, dose: 100.0 mg/kg/injection, schedule: Q01DX009 (ip), vehicle: Klucel (hydroxypropylcellulose) (HPC)): 233 % of control
T/C (T/C endpoint: median survival time, dose: 108.0 mg/kg/injection, schedule: Q01DX001 (ip), vehicle: Klucel (hydroxypropylcellulose) (HPC)): 145 % of control
T/C (T/C endpoint: median survival time, dose: 180.0 mg/kg/injection, schedule: Q01DX001 (ip), vehicle: Klucel (hydroxypropylcellulose) (HPC), evaluated on day 7): 252 % of control
T/C (T/C endpoint: median survival time, dose: 180.0 mg/kg/injection, schedule: Q01DX001 (ip), vehicle: Klucel (hydroxypropylcellulose) (HPC), evaluated on day 50): 240 % of control
T/C (T/C endpoint: median survival time, dose: 200.0 mg/kg/injection, schedule: Q01DX001 (ip), vehicle: Klucel (hydroxypropylcellulose) (HPC), evaluated on day 27): 150 % of control
T/C (T/C endpoint: median survival time, dose: 200.0 mg/kg/injection, schedule: Q01DX001 (ip), vehicle: Klucel (hydroxypropylcellulose) (HPC), evaluated on day 30): 177 % of control
T/C (T/C endpoint: median survival time, dose: 200.0 mg/kg/injection, schedule: Q01DX001 (ip), vehicle: Klucel (hydroxypropylcellulose) (HPC), evaluated on day 38): 124 % of control
T/C (T/C endpoint: median survival time, dose: 200.0 mg/kg/injection, schedule: Q01DX001 (ip), vehicle: Klucel (hydroxypropylcellulose) (HPC), evaluated on day 40): 188 % of control
T/C (T/C endpoint: median survival time, dose: 200.0 mg/kg/injection, schedule: Q01DX001 (ip), vehicle: steroid suspending solution, evaluated on day 30): 161 % of control
T/C (T/C endpoint: median survival time, dose: 200.0 mg/kg/injection, schedule: Q01DX001 (ip), vehicle: steroid suspending solution, evaluated on day 40): 150 and 155 % of control
T/C (T/C endpoint: median survival time, dose: 200.0 mg/kg/injection, schedule: Q01DX001 (ip), vehicle: steroid suspending solution, evaluated on day 45): 177 % of control
T/C (T/C endpoint: median survival time, dose: 200.0 mg/kg/injection, schedule: Q01DX001 (ip), vehicle: steroid suspending solution, evaluated on day 50): 177 and 555 % of control
T/C (T/C endpoint: median survival time, dose: 200.0 mg/kg/injection, schedule: Q01DX001 (ip), vehicle: steroid suspending solution, evaluated on day 54): 222 and 675 % of control
T/C (T/C endpoint: median survival time, dose: 200.0 mg/kg/injection, schedule: Q01DX001 (ip), vehicle: steroid suspending solution, evaluated on day 60): 250 % of control
T/C (T/C endpoint: median survival time, dose: 200.0 mg/kg/injection, schedule: Q01DX001 (ip), vehicle: steroid suspending solution, evaluated on day 69): 505 % of control
T/C (T/C endpoint: median survival time, dose: 200.0 mg/kg/injection, schedule: Q01DX009 (ip), vehicle: Klucel (hydroxypropylcellulose) (HPC)): 200 % of control
T/C (T/C endpoint: median survival time, dose: 300.0 mg/kg/injection, schedule: Q01DX001 (ip), vehicle: Klucel (hydroxypropylcellulose) (HPC), evaluated on day 7): 343 % of control
T/C (T/C endpoint: median survival time, dose: 300.0 mg/kg/injection, schedule: Q01DX001 (ip), vehicle: Klucel (hydroxypropylcellulose) (HPC), evaluated on day 30): 300 % of control
T/C (T/C endpoint: median survival time, dose: 300.0 mg/kg/injection, schedule: Q01DX001 (ip), vehicle: Klucel (hydroxypropylcellulose) (HPC), evaluated on day 50): 315 % of control
T/C (T/C endpoint: median survival time, dose: 400.0 mg/kg/injection, schedule: Q01DX001 (ip), vehicle: Klucel (hydroxypropylcellulose) (HPC), evaluated on day 27): 200 % of control
T/C (T/C endpoint: median survival time, dose: 400.0 mg/kg/injection, schedule: Q01DX001 (ip), vehicle: Klucel (hydroxypropylcellulose) (HPC), evaluated on day 30): 111 % of control
T/C (T/C endpoint: median survival time, dose: 400.0 mg/kg/injection, schedule: Q01DX001 (ip), vehicle: Klucel (hydroxypropylcellulose) (HPC), evaluated on day 38): 142 % of control
T/C (T/C endpoint: median survival time, dose: 400.0 mg/kg/injection, schedule: Q01DX001 (ip), vehicle: Klucel (hydroxypropylcellulose) (HPC), evaluated on day 40): 444 % of control
T/C (T/C endpoint: median survival time, dose: 400.0 mg/kg/injection, schedule: Q01DX001 (ip), vehicle: steroid suspending solution, evaluated on day 30): 333 % of control
T/C (T/C endpoint: median survival time, dose: 400.0 mg/kg/injection, schedule: Q01DX001 (ip), vehicle: steroid suspending solution, evaluated on day 40): 161 and 227 % of control
T/C (T/C endpoint: median survival time, dose: 400.0 mg/kg/injection, schedule: Q01DX001 (ip), vehicle: steroid suspending solution, evaluated on day 45): 172 % of control
T/C (T/C endpoint: median survival time, dose: 400.0 mg/kg/injection, schedule: Q01DX001 (ip), vehicle: steroid suspending solution, evaluated on day 50): 555 % of control (2×)
T/C (T/C endpoint: median survival time, dose: 400.0 mg/kg/injection, schedule: Q01DX001 (ip), vehicle: steroid suspending solution, evaluated on day 54): 383 and 675 % of control
T/C (T/C endpoint: median survival time, dose: 400.0 mg/kg/injection, schedule: Q01DX001 (ip), vehicle: steroid suspending solution, evaluated on day 60): 488 % of control
T/C (T/C endpoint: median survival time, dose: 400.0 mg/kg/injection, schedule: Q01DX001 (ip), vehicle: steroid suspending solution, evaluated on day 69): 766 % of control
T/C (T/C endpoint: median survival time, dose: 500.0 mg/kg/injection, schedule: Q01DX001 (ip), vehicle: Klucel (hydroxypropylcellulose) (HPC), evaluated on day 7): 255 % of control
T/C (T/C endpoint: median survival time, dose: 500.0 mg/kg/injection, schedule: Q01DX001 (ip), vehicle: Klucel (hydroxypropylcellulose) (HPC), evaluated on day 30): 180 % of control
T/C (T/C endpoint: median survival time, dose: 500.0 mg/kg/injection, schedule: Q01DX001 (ip), vehicle: Klucel (hydroxypropylcellulose) (HPC), evaluated on day 50): 250 % of control
T/C (T/C endpoint: median survival time, dose: 800.0 mg/kg/injection, schedule: Q01DX001 (ip), vehicle: Klucel (hydroxypropylcellulose) (HPC), evaluated on day 27): 177 % of control
T/C (T/C endpoint: median survival time, dose: 800.0 mg/kg/injection, schedule: Q01DX001 (ip), vehicle: Klucel (hydroxypropylcellulose) (HPC), evaluated on day 30): 88 % of control
T/C (T/C endpoint: median survival time, dose: 800.0 mg/kg/injection, schedule: Q01DX001 (ip), vehicle: Klucel (hydroxypropylcellulose) (HPC), evaluated on day 38): 136 % of control
T/C (T/C endpoint: median survival time, dose: 800.0 mg/kg/injection, schedule: Q01DX001 (ip), vehicle: Klucel (hydroxypropylcellulose) (HPC), evaluated on day 40): 116 % of control [7 of 8 alive]
T/C (T/C endpoint: median survival time, dose: 800.0 mg/kg/injection, schedule: Q01DX001 (ip), vehicle: steroid suspending solution, evaluated on day 30): 238 % of control
T/C (T/C endpoint: median survival time, dose: 800.0 mg/kg/injection, schedule: Q01DX001 (ip), vehicle: steroid suspending solution, evaluated on day 40): 161 and 333 % of control
T/C (T/C endpoint: median survival time, dose: 800.0 mg/kg/injection, schedule: Q01DX001 (ip), vehicle: steroid suspending solution, evaluated on day 50): 266 % of control
T/C (T/C endpoint: median survival time, dose: 800.0 mg/kg/injection, schedule: Q01DX001 (ip), vehicle: steroid suspending solution, evaluated on day 54): 127 and 675 % of control
survivor count (T/C endpoint: median survival time, dose: 800.0 mg/kg/injection, schedule: Q01DX001 (ip), vehicle: steroid suspending solution): 7 of 8 and 8 of 8 (3×)
T/C (T/C endpoint: median survival time, dose: 833.0 mg/kg/injection, schedule: Q01DX001 (ip), vehicle: Klucel (hydroxypropylcellulose) (HPC), evaluated on day 7): 222 % of control
T/C (T/C endpoint: median survival time, dose: 833.0 mg/kg/injection, schedule: Q01DX001 (ip), vehicle: Klucel (hydroxypropylcellulose) (HPC), evaluated on day 50): 215 % of control
survivor count (T/C endpoint: median survival time, dose: 833.0 mg/kg/injection, schedule: Q01DX001 (ip), vehicle: Klucel (hydroxypropylcellulose) (HPC)): 7 of 8

Reference: PubChem BioAssay AID248 (DTP/NCI, 2004)
